The record followed here is the supplement of paper PMC10849652.

Sequences of proteins named here, by UniProt entry; tags and fusion partners are left off. A change or cut given only in a name is not applied to a line headed by its entry.
UniProt Q14CB8: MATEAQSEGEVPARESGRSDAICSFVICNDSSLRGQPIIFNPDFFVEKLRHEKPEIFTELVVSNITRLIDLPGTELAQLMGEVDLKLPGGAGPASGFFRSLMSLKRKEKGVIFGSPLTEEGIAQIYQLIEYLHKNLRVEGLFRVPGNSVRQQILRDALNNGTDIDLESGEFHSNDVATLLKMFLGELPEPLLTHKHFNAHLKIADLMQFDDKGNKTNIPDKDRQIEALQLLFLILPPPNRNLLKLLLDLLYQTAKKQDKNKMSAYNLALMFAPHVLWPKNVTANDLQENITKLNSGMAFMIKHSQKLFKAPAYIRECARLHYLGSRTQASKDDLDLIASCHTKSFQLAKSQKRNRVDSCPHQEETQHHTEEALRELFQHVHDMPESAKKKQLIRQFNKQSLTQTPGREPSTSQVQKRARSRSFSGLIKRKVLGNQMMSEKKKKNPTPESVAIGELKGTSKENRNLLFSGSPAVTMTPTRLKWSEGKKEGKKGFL
UniProt Q9BUR5: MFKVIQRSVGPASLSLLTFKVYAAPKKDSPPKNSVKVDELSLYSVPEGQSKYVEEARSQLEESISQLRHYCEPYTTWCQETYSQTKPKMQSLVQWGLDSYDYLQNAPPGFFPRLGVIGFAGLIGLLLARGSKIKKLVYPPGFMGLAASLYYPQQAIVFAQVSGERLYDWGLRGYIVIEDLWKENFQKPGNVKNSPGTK
UniProt Q8N264: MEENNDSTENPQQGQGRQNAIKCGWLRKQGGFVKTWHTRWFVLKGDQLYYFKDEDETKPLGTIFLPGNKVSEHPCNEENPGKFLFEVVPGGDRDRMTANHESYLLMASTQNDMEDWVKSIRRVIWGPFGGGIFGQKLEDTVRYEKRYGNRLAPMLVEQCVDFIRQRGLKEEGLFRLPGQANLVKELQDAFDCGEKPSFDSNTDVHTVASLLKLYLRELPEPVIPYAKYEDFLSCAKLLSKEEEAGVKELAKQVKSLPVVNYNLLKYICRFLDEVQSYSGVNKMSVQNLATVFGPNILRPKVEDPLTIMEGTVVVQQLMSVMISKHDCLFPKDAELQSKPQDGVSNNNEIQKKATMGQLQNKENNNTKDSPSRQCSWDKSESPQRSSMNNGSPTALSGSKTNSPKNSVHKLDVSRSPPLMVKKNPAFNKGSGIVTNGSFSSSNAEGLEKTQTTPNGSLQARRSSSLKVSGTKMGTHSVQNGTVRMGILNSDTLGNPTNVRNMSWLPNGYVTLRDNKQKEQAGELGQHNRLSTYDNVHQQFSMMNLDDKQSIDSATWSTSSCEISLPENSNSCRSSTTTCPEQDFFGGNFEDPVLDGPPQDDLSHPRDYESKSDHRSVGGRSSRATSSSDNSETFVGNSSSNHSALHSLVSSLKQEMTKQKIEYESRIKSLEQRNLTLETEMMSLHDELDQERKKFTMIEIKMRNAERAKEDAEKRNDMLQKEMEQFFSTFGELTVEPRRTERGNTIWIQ
UniProt Q6P1M9: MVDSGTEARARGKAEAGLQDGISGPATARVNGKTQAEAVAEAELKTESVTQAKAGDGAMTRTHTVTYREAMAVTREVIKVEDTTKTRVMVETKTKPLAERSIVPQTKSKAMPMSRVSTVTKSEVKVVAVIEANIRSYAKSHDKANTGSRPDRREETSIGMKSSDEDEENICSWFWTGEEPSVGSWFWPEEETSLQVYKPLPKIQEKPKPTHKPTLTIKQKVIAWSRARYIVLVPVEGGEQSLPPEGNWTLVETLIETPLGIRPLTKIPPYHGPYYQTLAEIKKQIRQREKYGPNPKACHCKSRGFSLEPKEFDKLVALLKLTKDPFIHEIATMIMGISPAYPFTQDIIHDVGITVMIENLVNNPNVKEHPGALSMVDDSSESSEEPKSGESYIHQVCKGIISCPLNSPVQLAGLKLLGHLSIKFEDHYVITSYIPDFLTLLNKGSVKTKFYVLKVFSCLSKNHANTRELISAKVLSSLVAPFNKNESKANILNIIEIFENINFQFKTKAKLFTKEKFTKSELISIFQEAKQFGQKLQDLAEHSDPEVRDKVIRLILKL
UniProt P29374: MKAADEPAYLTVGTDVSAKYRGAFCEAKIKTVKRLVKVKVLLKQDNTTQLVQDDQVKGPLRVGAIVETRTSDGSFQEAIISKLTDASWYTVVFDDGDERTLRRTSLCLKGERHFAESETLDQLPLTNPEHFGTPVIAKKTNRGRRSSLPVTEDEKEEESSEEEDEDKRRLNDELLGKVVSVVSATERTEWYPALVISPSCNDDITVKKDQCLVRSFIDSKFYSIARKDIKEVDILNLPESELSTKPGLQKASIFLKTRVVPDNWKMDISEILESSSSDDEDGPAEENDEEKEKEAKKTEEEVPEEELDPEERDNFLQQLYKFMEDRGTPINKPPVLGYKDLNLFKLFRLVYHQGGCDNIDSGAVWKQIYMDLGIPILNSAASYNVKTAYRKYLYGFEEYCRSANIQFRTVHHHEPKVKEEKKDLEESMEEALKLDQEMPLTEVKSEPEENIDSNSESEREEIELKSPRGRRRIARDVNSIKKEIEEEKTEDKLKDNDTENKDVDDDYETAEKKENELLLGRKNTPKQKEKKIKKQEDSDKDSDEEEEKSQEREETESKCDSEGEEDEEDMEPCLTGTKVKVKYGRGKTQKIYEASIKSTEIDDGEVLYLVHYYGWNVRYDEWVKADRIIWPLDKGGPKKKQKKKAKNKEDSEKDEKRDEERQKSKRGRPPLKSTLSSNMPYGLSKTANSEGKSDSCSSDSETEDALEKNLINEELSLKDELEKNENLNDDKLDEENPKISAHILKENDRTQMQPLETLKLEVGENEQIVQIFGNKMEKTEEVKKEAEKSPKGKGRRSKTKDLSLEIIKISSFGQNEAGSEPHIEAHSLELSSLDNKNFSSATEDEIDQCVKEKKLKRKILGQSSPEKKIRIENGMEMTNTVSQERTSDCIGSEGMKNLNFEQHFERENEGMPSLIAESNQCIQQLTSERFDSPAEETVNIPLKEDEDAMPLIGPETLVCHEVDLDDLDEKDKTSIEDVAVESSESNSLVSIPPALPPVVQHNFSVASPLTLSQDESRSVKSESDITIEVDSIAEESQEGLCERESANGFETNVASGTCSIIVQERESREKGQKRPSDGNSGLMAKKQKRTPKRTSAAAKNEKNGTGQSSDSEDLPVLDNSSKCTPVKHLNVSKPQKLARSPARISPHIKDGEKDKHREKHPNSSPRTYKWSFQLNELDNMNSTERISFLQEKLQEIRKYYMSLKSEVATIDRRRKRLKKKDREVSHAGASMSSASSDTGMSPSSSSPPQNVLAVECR
UniProt Q9UH17: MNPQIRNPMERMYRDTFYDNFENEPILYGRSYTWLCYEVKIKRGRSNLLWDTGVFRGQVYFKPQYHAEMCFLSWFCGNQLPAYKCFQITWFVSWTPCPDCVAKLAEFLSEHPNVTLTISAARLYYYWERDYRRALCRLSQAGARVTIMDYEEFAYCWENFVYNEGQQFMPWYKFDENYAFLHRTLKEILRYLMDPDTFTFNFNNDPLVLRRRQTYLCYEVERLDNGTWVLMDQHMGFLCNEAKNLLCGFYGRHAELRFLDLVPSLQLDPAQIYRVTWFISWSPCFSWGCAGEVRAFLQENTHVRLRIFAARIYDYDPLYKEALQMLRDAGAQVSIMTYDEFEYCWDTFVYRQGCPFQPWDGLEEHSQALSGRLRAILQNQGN

The other results are listed elsewhere or left out.

Assay in all cases: log2 fold change, soluble protein after heating vs DMSO (PISA); higher = thermal stabilisation; K562 lysate, 10 uM; active = over 0.2 and 3.5 SD of the protein, either way, in both replicates (recomputed)
Compound in assay [1]: C#Cc1cccc(Nc2ncnc3cc(OCCOC)c(OCCOC)cc23)c1 [erlotinib]
An outline of the steps:
(§1)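 Pellets of K562 cells were dounce-homogenised in PBS pH 7.4 with 1 mM MgCl2, and the crude extract was held at 1 mg/mL protein for a 30 min treatment with 10 μM compound. Aliquots were heated for 3 min over 48°C-58°C and pooled before NP-40 was added to 0.5% at 4°C. The supernatant from 21,000xg for 90 min was quantified by TMTpro 16plex LC-MS/MS with channel sums equalised. Values are reported from duplicates as log-two fold change in thermal stability relative to solvent controls.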

Compound in assay [2]: C/C(=N\NC(=O)C1=CC(=CC=C1)S(=O)(=O)N2CCOCC2)/C3=C(C=CC(=C3)Cl)O
An outline of the steps:
as §1

Compound in assay [3]: C1=CC(=CC=C1C2=NC3=C(N2)C=C(C=C3)C(=O)N)OC4=CC=C(C=C4)Cl
An outline of the steps:
as §1

Compound in assay [4]: C1=CC2=C(C=CC(=C2)/C=C\3/C(=O)NC(=NCC4=CC=CS4)S3)N=C1
An outline of the steps: as §1

Compound in assay [5]: C1=CC2=NC=CN=C2C=C1/C=C/3\C(=O)NC(=O)S3
The procedure, abridged:
as §1

Compound in assay [6]: C1=CC=C(C=C1)C2=NC(=C(N2)C3=CC=NC=C3)C4=CC(=C(C=C4)Cl)O
The procedure, abridged:
as §1

Compound in assay [7]: C1=CC=C2C(=C1)C3=NNC4=CC=CC(=C43)C2=O
An outline of the steps: as §1

Compound in assay [8]: C1CCN(C1)C(=O)NC2=CC=CC(=C2)NC3=NC=C(C(=N3)NCCC4=CN=CN4)Br
An outline of the steps:
as §1

Compound in assay [9]: C1CN(CCC1(CC2=CC=C(C=C2)Cl)N)C3=NC=NC4=C3C=CN4
The procedure, abridged: as §1

Compound in assay [10]: C1COCCN1CCN2C3=CC=CC=C3N=C2NC(=O)C4=CC(=CC=C4)[N+](=O)[O-] [IRAK-1-4 Inhibitor I]
An outline of the steps:
as §1

Compound in assay [11]: C=CC(=O)N1CCC[C@@H](n2nc(-c3ccc(Oc4ccccc4)cc3)c3c(N)ncnc32)C1 [ibrutinib]
An outline of the steps: as §1

Compound in assay [12]: CC(C)(C)Cn1c(N)nc2ccc(-c3[nH]c(C(C)(C)C)nc3-c3ccc(F)cc3)nc21 [ralimetinib]
The procedure, abridged: as §1

Compound in assay [13]: CC(C)(O)CC(=O)NCCn1ccc2ncnc(Nc3ccc(Oc4cccc(C(F)(F)F)c4)c(Cl)c3)c21
An outline of the steps: as §1

Compound in assay [14]: CC(C)C1=C2N=C(C=C(N2N=C1)NCC3=CC=CC=C3)NCCCCCCN
An outline of the steps: as §1

Compound in assay [15]: CC1=C(C(CC(=O)N1)C2=CC=C(C=C2)C(F)(F)F)C(=O)NC3=C(C=C4C(=C3)C=NN4)F
The procedure, abridged:
as §1

Compound in assay [16]: CC1=C(C2=C(C=C1)C(=O)C3=CC=CC=C3N2CCCN)C
An outline of the steps:
as §1

Compound in assay [17]: CC1=C(C=C(C=C1)NC(=O)C2=CC(=CC=C2)C(C)(C)C#N)NC3=CC4=C(C=C3)N=CN(C4=O)C
An outline of the steps:
as §1

Compound in assay [18]: CC1=C(C=C(C=C1)NC(=O)C2=CC(=CC=C2)N(C)C)NC(=O)C3=CC=C(C=C3)O
The procedure, abridged:
as §1

Compound in assay [19]: CC(=O)c1cnc2ccc(-c3cc(Cl)c(O)c(Cl)c3)nc2c1N[C@H]1CC[C@H](CN(C)C)CC1
The procedure, abridged:
as §1

Compound in assay [20]: CC1=CC=C(C=C1)SC2=C3C=C(SC3=CN=C2)C(=O)N
The procedure, abridged: as §1

As for ARHGAP19 isoform 2 (UniProt Q14CB8), the log2 fold change in assay [1] is inactive: 0.027; in assay [2], inactive: -0.061; in [3] it was inactive: 0.012; in assay [4], inactive: -0.158; in assay [5] it was inactive: 0.14; in assay [6], inactive: 0.043. The log2 fold change was inactive: 0.034 in assay [7]; inactive: -0.04 in assay [8]; inactive: -0.069 in assay [9]; inactive: -0.021 in [10]; inactive: 0.324 in [11]; inactive: -0.023 in assay [12]. Also, the log2 fold change is inactive: 0.05 in assay [13]; inactive: 0.028 in assay [14]; inactive: -0.042 in [15]; inactive: -0.005 in assay [16]; inactive: 0.023 in assay [17]; inactive: 0.026 in assay [18].

Take APOO (UniProt Q9BUR5): the log2 fold change in assay [1] was inactive: 0.033; in [2] it was inactive: 0.034; in assay [3], inactive: -0.039; in assay [4] it was inactive: -0.041; in [5], inactive: 0.019; in [6] it was inactive: -0.006. For the same target, the log2 fold change in assay [7] was inactive: 0.068; in assay [8], inactive: 0.019; in [9], inactive: -0.083; in [10] it was inactive: 0.018; in [11] it was inactive: 0.023; in assay [19], inactive: 0.055. For the same target, the log2 fold change in assay [12] is inactive: 0.02; in assay [13] it was inactive: -0.039; in assay [14], inactive: -0.027; in assay [15], inactive: -0.012; in assay [16] it was inactive: -0.025; in assay [17], inactive: -0.024. Also, the log2 fold change in assay [18] is inactive: 0.052; in assay [20] it was inactive: 0.006.

For ARHGAP24 (UniProt Q8N264), the log2 fold change in assay [1] was inactive: 0.068; in assay [2], inactive: -0.146; in [3], inactive: -0.036; in [4], inactive: 0.098; in assay [7] it was inactive: 0.024; in assay [8], inactive: -0.036. Moreover, the values for the log2 fold change in [9], in assay [14] and in assay [15] were inactive: -0.057, inactive: -0.025 and inactive: -0.013, respectively.

Consider ARMCX5 (UniProt Q6P1M9), for which the log2 fold change in assay [1] was inactive: -0.08; in assay [2] it was inactive: 0.047; in assay [3], inactive: -0.004; in assay [4] it was inactive: 0.157; in [5], inactive: 0.001; in assay [6], inactive: 0.03. Moreover, the log2 fold change in [7] is active: -0.35; in [8] it was inactive: 0.075; in [9] it was inactive: -0.039; in assay [10], inactive: -0.08; in assay [11] it was inactive: 0.04; in [19], inactive: -0.018. For the same target, the log2 fold change is inactive: 0.012 in [12]; inactive: 0.013 in assay [13]; inactive: -0.004 in assay [14]; inactive: -0.047 in assay [15]; inactive: 0.053 in assay [16]; inactive: -0.049 in assay [18]. The log2 fold change in [20] was inactive: -0.093.

Regarding ARID4A (UniProt P29374), the log2 fold change is inactive: 0.023 in assay [1]; inactive: 0.022 in [2]; inactive: -0.003 in assay [3]; inactive: 0.032 in [4]; inactive: 0.057 in [6]; inactive: -0.044 in [7]. Besides, the log2 fold change in [10] is inactive: 0.169; in assay [12], inactive: 0.244; in [13], inactive: 0.087; in assay [14], inactive: 0.025; in [15], inactive: -0.056; in assay [16], inactive: 0.025. Moreover, in [18], the log2 fold change is inactive: -0.089.

On to APOBEC3B (UniProt Q9UH17), for which the log2 fold change in [1] was inactive: -0.086; in assay [2], inactive: 0.034; in assay [3], inactive: 0.146; in assay [4], inactive: 0.007; in assay [6], inactive: 0.049; in assay [7], inactive: -0.038. The log2 fold change in assay [8] is inactive: 0.023; in assay [9], inactive: -0.09; in assay [10] it was inactive: -0.037; in assay [12] it was inactive: 0.044; in assay [13], inactive: -0.021; in assay [14] it was inactive: 0.224. Further, the log2 fold change in assay [15] was inactive: 0.112; in assay [16] it was inactive: -0.07; in [17], inactive: 0.162; in assay [18], inactive: -0.056.
